{"source": "paper PMC10229614", "about": "(Scientific Reports, 2023)", "tested_on": "breast tissue microstructures", "test": "Total RNA sequencing of high-risk breast tissue microstructures", "format": "cell-based, human", "conditions": "5 µM, 24 h, adj P < 0.05, six donors"}
{"smiles": "O=C1C[C@@H](c2ccc(O)cc2)Oc2cc(O)ccc21", "note": "[LigF, liquiritigenin]", "values": [{"measurement": "Number of significantly downregulated differentially expressed genes", "result": 2088}, {"measurement": "Number of significantly upregulated differentially expressed genes", "result": 1199}]}
